Assay results published in PubChem BioAssay AID2685 (National Center for Advancing Translational Sciences (NCATS), 2010).
The list shows a part of the results. Shown are side measurements of this screen, not its main read-out; they come without a call. Compounds called inactive in the main read-out are mostly missing here. Words in brackets tell the shape of the fitted curve; partial curves, single points and poor fits give uncertain potencies.

Assay: qHTS Assay for Lipid Storage Modulators in Drosophila S3 Cells;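 for cell number change: cells counted by Cell Tracker Red CMTPX staining in the red channel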
Conditions: BODIPY lipid droplet fluorescence, 18-24 h; for cell number change: measured here: cell count max response, cells fed with added oleic acid
Summary of the method: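 Laser-scanning cytometry quantifies lipid droplet accumulation (500–530 nm total intensity; droplet/cell object ratio) in oleic acid-fed (400 uM added) Drosophila S3 cells treated with a concentration series. 20 uM Triacsin C defined 100% inhibition.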

[1] = measured here: lipid fluorescence (Fed channel) AC50, cells fed with added oleic acid
[2] = measured here: cell number channel AC50, cells fed with added oleic acid

Compound | cell number change [%] | AC50 [1] | AC50 [2]
CCOC(=O)c1ccccc1NC(=O)CSC(C)C(=O)Nc1cc(C)on1 (stereo not drawn) | -5.93 | 18.4 µM [falling, single point] | 
Cc1nnc(SCc2nnc(-c3cccs3)o2)n1C1CCCCC1 |  |  | 2.59 µM [rising, single point]
NC(=O)c1c(NC(=O)c2ccccc2F)sc2c1CCCC2 |  | 5.17 µM [falling, full curve] | 
COc1cc(/C=C(\C#N)C(=O)Nc2ccccc2)ccc1OCCN1CCOCC1 | -24.8 | 29.1 µM [falling, single point] | 
O=c1[nH]c(C(F)(F)F)nc2c1nnn2Cc1ccccc1F | 13.9 |  | 
O=C(CN(C(=O)c1csnn1)c1ccc(F)c(Cl)c1)NCc1ccc2c(c1)OCO2 | 12.8 | 0.0259 µM [rising, full curve] | 
O=C(Nc1ccc(S(=O)(=O)Nc2ncccn2)cc1)c1cccnc1 | 36.2 | 18.4 µM [rising, single point] | 20.6 µM [rising, single point]
O=C1C(C=NCc2cccnc2)=C(O)c2ccccc21 | -9.93 |  | 
COc1ccc(/C=C\C(=O)c2c(O)ccc3c(C)cc(=O)oc23)cc1OC | -47.4 | 13 µM [falling, partial curve] | 13 µM [falling, single point]
CCCOc1c(Br)cc(/C=N/O)cc1OC | -54.4 | 29.1 µM [falling, single point] | 16.4 µM [falling, single point]
O=C(O)CCCNS(=O)(=O)c1cccc2nsnc12 | -0.0849 | 29.1 µM [falling, partial curve] | 
Cc1cccc(/C=C2/SC(=O)N(Cc3ccccc3Cl)C2=O)n1 | 0.149 |  | 
CCc1ccc(C(=O)NNc2ccc(S(N)(=O)=O)cc2)cc1 | -16.3 | 2.06 µM [falling, full curve, poor fit] | 
COc1cc(C(=O)Nc2ccc(-n3cnnn3)c(C)c2)cc(OC)c1OC | -2.97 | 13 µM [falling, partial curve, poor fit] | 
CN1CCN(c2ccc(NC(=O)c3ccc4c(c3)[nH]c(=O)n4Cc3ccc(F)cc3)cc2)CC1 |  | 20.6 µM [rising, single point] | 
O=C(NC1CCCCC1)c1sc(=S)n2c1[nH]c(=O)c1ccccc12 | -53.3 | 23.1 µM [falling, single point] | 23.1 µM [falling, single point]
Cc1ccccc1CCN(CC(=O)NC1CCCCC1)C(=O)c1csnn1 | 7.6 |  | 6.51 µM [falling, single point]
Cc1c(C(=O)OC(C)C)sc(N)c1C(=O)OC(C)C | -64.3 | 8.2 µM [falling, single point] | 18.4 µM [falling, partial curve]
Cc1ccc(OCC(=O)N/N=C/c2ccncc2)cc1 | 14.1 | 3.26 µM [rising, single point] | 
COc1ccc(N(CC(=O)NC2CCCC2)C(=O)c2ccc(C)s2)c(OC)c1 | 18.9 | 0.231 µM [falling, full curve, poor fit] | 
CN(C)c1ccc(C(CNC(=O)c2cccs2)N(C)C)cc1 (stereo not drawn) | 0.345 | 0.651 µM [falling, single point] | 

Record cards, from the list above.
COc1cc(C(=O)Nc2ccc(-n3cnnn3)c(C)c2)cc(OC)c1OC is listed with cell number change [%]: -2.97; AC50 [1]: 13 µM [falling, partial curve, poor fit]
O=C(Nc1ccc(S(=O)(=O)Nc2ncccn2)cc1)c1cccnc1 is listed with cell number change [%]: 36.2; AC50 [1]: 18.4 µM [rising, single point]; AC50 [2]: 20.6 µM [rising, single point]
CCCOc1c(Br)cc(/C=N/O)cc1OC is listed with cell number change [%]: -54.4; AC50 [1]: 29.1 µM [falling, single point]; AC50 [2]: 16.4 µM [falling, single point]

Continuation:

Compound | cell number change [%] | AC50 [1] | AC50 [2]
Cc1c(CCC(=O)NCCCn2ccnc2)c(=O)oc2c(C)c3occ(C(C)(C)C)c3cc12 | 18.7 |  | 
CCOCCn1[nH]c2ccccc2c1=O | -4.15 | 0.146 µM [falling, full curve, poor fit] | 
Cc1cc(C)c(C)c(S(=O)(=O)NCC(=O)Nc2ccc(F)cc2)c1C | 8.71 |  | 
CCOc1ccc(CCNC(=O)CN(C)S(=O)(=O)c2ccc3c(c2)CCC(=O)N3)cc1OCC | 5.94 |  | 
CCNC(=S)N1CCN(CCN=CC2=C(O)CC(c3ccco3)CC2=O)CC1 (stereo not drawn) | 12.7 | 5.8 µM [falling, single point] | 
O=C(Cc1ccccc1)NCCN1CCCC1 | -1.26 | 0.00517 µM [falling, full curve, poor fit] | 
O=C(Nc1nc(-c2ccccc2)cs1)C1CCCN(S(=O)(=O)c2cccc([N+](=O)[O-])c2)C1 (stereo not drawn) |  | 0.731 µM [rising, full curve] | 0.651 µM [rising, single point]
C[C@@]12CCC3[C@@](CCC4[C@@]3(C)CCC[C@@]4(C)C(=O)NC3CCCCC3)(CC1=O)C2 (stereo partly drawn) | -23.5 | 0.103 µM [falling, single point] | 
CCOc1ccc(C2=Nc3ccc(Br)cc3C(c3ccc(N4CCOCC4)cc3)=NN2)cc1 | -14.5 | 5.17 µM [falling, full curve, poor fit] | 
CN1C(=O)/C(=C/c2cccc([N+](=O)[O-])c2)C(=O)N1c1ccccc1 | 7.04 |  | 
Cc1cc(Nc2ccc(C)c(C)c2)n2nc(C)nc2n1 |  | 2.06 µM [rising, partial curve] | 1.64 µM [rising, partial curve]
N/C(=N\OC(=O)c1ccc(=O)n(Cc2ccccc2)c1)c1ccccn1 | -33.8 | 18.4 µM [falling, partial curve, poor fit] | 
COc1ccc(/C=N/c2oc(-c3ccccc3)cc2C#N)cc1OC |  |  | 6.51 µM [rising, single point]
CC1(C(=O)OCC(=O)NNC(=O)COc2ccc(Cl)cc2)CC1(Cl)Cl (stereo not drawn) | -1.3 | 1.64 µM [rising, full curve] | 
Cc1ccc2[nH]c(O)c(N=NC(=O)C(C)n3cnc4ccccc4c3=O)c2c1 (stereo not drawn) | 66.9 |  | 29.1 µM [rising, single point]
CC(C)[C@H](NC(=O)c1ccccc1F)C(=O)NCc1ccc(S(N)(=O)=O)cc1 | -14.2 | 0.00461 µM [falling, full curve, poor fit] | 
Cc1c(C(=O)OCC(=O)NCc2ccc3c(c2)OCO3)cccc1[N+](=O)[O-] |  | 23.1 µM [falling, single point] | 
C/C(N)=C(/C#N)C(=O)COC(=O)C1CCC(C(C)(C)C)CC1 (stereo not drawn) | -54 | 2.06 µM [falling, partial curve] | 0.206 µM [falling, full curve, poor fit]
COc1cc(C(=O)Nc2nccs2)c(Br)c(OC)c1OC |  | 3.66 µM [rising, partial curve] | 3.26 µM [rising, single point]
O=C(O)c1ccccc1NC(=O)C1CCCO1 (stereo not drawn) |  | 0.517 µM [falling, full curve, poor fit] | 
COc1ccc(-n2c(Cc3cc(=O)[nH]c(=O)[nH]3)nnc2SCC(=O)N2CCC(C)CC2)cc1 | 0.659 | 2.06 µM [falling, partial curve] | 

Compound | cell number change [%] | AC50 [1] | AC50 [2]
CCOC(=O)c1cnc(Nc2nc3ccccc3o2)nc1C | 49.2 |  | 16.4 µM [rising, single point]
Fc1cccc(Cl)c1Cn1nnc(-c2ccc3c(c2)OCO3)n1 | -15.5 | 0.00461 µM [rising, full curve, poor fit] | 
COc1ccc(NC(=O)C2CCCCN2N)cc1OCC(C)C (stereo not drawn) | 35.7 |  | 13 µM [rising, single point]
CCC(C)NC(=O)C1CCN(S(=O)(=O)c2ccc(OC)cc2)CC1 (stereo not drawn) | -33.4 |  | 29.1 µM [falling, partial curve, poor fit]
O=C(NCc1cn2ccsc2n1)c1cccc(C(F)(F)F)c1 | -33.9 |  | 29.1 µM [falling, single point]
C/C(=N\NC(=O)CCc1ccc(S(=O)(=O)N2CCOCC2)cc1)c1ccc(Br)cc1 | -36.3 |  | 
O=C(COC(=O)COc1ccccc1)Nc1ncc([N+](=O)[O-])s1 | 9.59 | 0.58 µM [rising, single point] | 
COc1ccccc1Nc1nnc(SCc2cc(=O)n3cc(C)ccc3n2)s1 | 4.82 | 0.82 µM [rising, partial curve, poor fit] | 
COCC(C)NC(=S)N1CCN(c2ccccc2Cl)CC1 (stereo not drawn) | 87.4 |  | 
Cc1ccc(S(=O)(=O)N2CCCC2CNC(=O)C(=O)NC2CC2)cc1 (stereo not drawn) | -6.34 |  | 0.731 µM [falling, single point]
Cc1cccc2c1CC(C)(C)N=C2C1=C(O)CCCC1=O | 32.8 |  | 32.6 µM [rising, partial curve, poor fit]
COCCN(C(=O)CCC(=O)Nc1cc(C)on1)C(C(=O)NC1CCCC1)c1ccc(C(C)C)cc1 (stereo not drawn) | -3.95 | 6.31 µM [falling, single point] | 
CCc1nn2cc(C(=O)c3cc(Cl)ccc3O)cnc2c1-c1ccc(F)cc1 | -33.1 | 29.1 µM [falling, single point] | 29.1 µM [falling, single point]
CCCCCCNCCn1cnc2c(N)ncnc21 | 27 | 23.1 µM [rising, partial curve] | 
O=C(NCCC1=CCCCC1)C1CCC(=O)N(Cc2ccc(Cl)cc2)C1 (stereo not drawn) | -19 | 32.6 µM [falling, partial curve, poor fit] | 
Cn1c(C(=O)N2CCN(c3ccccc3)CC2)cc2cc(Cl)ccc21 | -13.6 | 29.1 µM [falling, single point] | 
CCOc1ccccc1NC(=O)CSc1nc(=O)n(CCCN2CCOCC2)c2c1CCCC2 | 25 |  | 7.31 µM [rising, partial curve, poor fit]
O=c1c2ccccc2nc(-c2ccco2)n1-c1nc2ccccc2s1 | 11 | 2.31 µM [rising, full curve, poor fit] | 
O=C(Nc1ccc2c(c1)OCO2)[C@@H]1CCCN1S(=O)(=O)c1cccc2cccnc12 |  | 20.6 µM [falling, single point] | 
